# From the supplement of paper PMC4635364
# Structures can show the parent of a compound that is named as a salt. This is one part of the list. This data set is noisy: repeats of one test often differ as much as different tests do.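 ReNCell VM, a human fetal ventral-midbrain neural progenitor line, was differentiated without mitogens. Blinded raters scored images stained for doublecortin (early neurons) or tyrosine hydroxylase (dopaminergic neurons) against untreated wells (0 = no change). Scores were averaged across repeats and both raters, and compounds averaging 2 or more were selected as hits for retesting.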
# Columns and labels:
# [1] = tested on: ReNCell VM; assay: neuronal differentiation score (DCX+ cell fraction vs untreated, manual image score) (score (-3 to 3)); higher = more neuronal differentiation; details: 2 uM, 2 weeks
# [2] = tested on: ReNCell VM; assay: dopaminergic neuron differentiation score (TH+ cell fraction vs untreated, manual image score) (score (0 to 3)); higher = more TH+ dopaminergic neuron differentiation; details: 2 uM, 4 weeks, BDNF 10 ng/ml + GDNF 10 ng/ml
smiles,measurement,setting,value
Cc1ccsc1/C=C/C1=NCCCN1C,neuronal differentiation score,[1]; library: Spectrum,inactive: 0
same,dopaminergic neuron differentiation score,[2]; library: Spectrum,inactive: 0
CCOC(=O)O[C@]1(C(=O)COC(=O)CC)CC[C@H]2[C@@H]3CCC4=CC(=O)C=C[C@]4(C)[C@H]3[C@@H](O)C[C@@]21C,neuronal differentiation score,[1]; library: Spectrum,inactive: 0
same,dopaminergic neuron differentiation score,[2]; library: Spectrum,inactive: 0
O=C1Nc2ccccc2C(=O)N2CCCC12 (stereo unspecified),neuronal differentiation score,[1]; library: Natural,inactive: -1
same,dopaminergic neuron differentiation score,[2]; library: Natural,inactive: 1
CN1CCC(=C2c3ccccc3CCc3cccnc32)CC1,neuronal differentiation score,[1]; library: Spectrum,inactive: 0
same,dopaminergic neuron differentiation score,[2]; library: Spectrum,inactive: 0
CC(=O)Oc1cccc2c1C(=O)c1c(OC(C)=O)cc(C(=O)O)cc1C2=O [Diacerein],neuronal differentiation score,[1]; library: Prestwick,inactive: 0
same,dopaminergic neuron differentiation score,[2]; library: Prestwick,inactive: 0
CN(CCCCCCCCCCN(C)C(=O)Oc1cccc([N+](C)(C)C)c1)C(=O)Oc1cccc([N+](C)(C)C)c1 [Demecarium bromide],neuronal differentiation score,[1]; library: Prestwick,inactive: 0
same,dopaminergic neuron differentiation score,[2]; library: Prestwick,inactive: 0
C[C@H](CCC(=O)O)[C@H]1CC[C@H]2[C@@H]3[C@H](O)C[C@@H]4C[C@H](O)CC[C@]4(C)[C@H]3CC[C@]12C [Chenodiol],neuronal differentiation score,[1]; library: Prestwick,inactive: 0
same,dopaminergic neuron differentiation score,[2]; library: Prestwick,inactive: 0
OC(c1ccccc1)C1CCN(CCc2ccccc2)CC1 (stereo unspecified),neuronal differentiation score,[1]; library: Tocriscreen,inactive: 0
same,dopaminergic neuron differentiation score,[2]; library: Tocriscreen,inactive: 0
CNNCc1ccc(C(=O)NC(C)C)cc1 [Procarbazine hydrochloride],neuronal differentiation score,[1]; library: Prestwick,inactive: 0
same,dopaminergic neuron differentiation score,[2]; library: Prestwick,inactive: 0
CCN(CC)C(=O)Nc1ccc(OCC(O)CNC(C)(C)C)c(C(C)=O)c1 (stereo unspecified) [Celiprolol HCl],neuronal differentiation score,[1]; library: Prestwick,inactive: 0
same,dopaminergic neuron differentiation score,[2]; library: Prestwick,inactive: 0
COc1ccc(C=CC(=O)O)cc1OC,neuronal differentiation score,[1]; library: Spectrum,inactive: 0
same,dopaminergic neuron differentiation score,[2]; library: Spectrum,inactive: 0
NC(=O)c1cccnc1,neuronal differentiation score,[1]; library: Spectrum,inactive: 0
same,dopaminergic neuron differentiation score,[2]; library: Spectrum,inactive: 0
O=C(O)COC(=O)Cc1ccccc1Nc1c(Cl)cccc1Cl [Aceclofenac],neuronal differentiation score,[1]; library: Prestwick,inactive: 0
same,dopaminergic neuron differentiation score,[2]; library: Prestwick,inactive: 0
Cc1cccc(Nc2cc(Cl)nc(SCC(=O)O)n2)c1C,neuronal differentiation score,[1]; library: Tocriscreen,inactive: 0
same,dopaminergic neuron differentiation score,[2]; library: Tocriscreen,inactive: 0
CCOc1nc2cccc(C(=O)OCc3oc(=O)oc3C)c2n1Cc1ccc(-c2ccccc2-c2noc(=O)[nH]2)cc1,neuronal differentiation score,[1]; library: Spectrum,inactive: 0
same,dopaminergic neuron differentiation score,[2]; library: Spectrum,inactive: 0
Cc1ccc(NC(=O)c2ccc(CN3CCN(C)CC3)cc2)cc1Nc1nccc(-c2cccnc2)n1 [Imatinib],neuronal differentiation score,[1]; library: Prestwick,inactive: 0
same,dopaminergic neuron differentiation score,[2]; library: Prestwick,inactive: 0
"CCCCCCCCCCC/C=C\C(C)(C)/C=C\CCCC(=O)O [7,7-Dimethyl-(5Z,8Z)-eicosadienoic acid]",neuronal differentiation score,[1]; library: LOPAC,inactive: 0
same,dopaminergic neuron differentiation score,[2]; library: LOPAC,inactive: 0
CC(=O)Nc1ccccc1,neuronal differentiation score,[1]; library: Spectrum,inactive: 0
same,dopaminergic neuron differentiation score,[2]; library: Spectrum,inactive: 0
CC1(C)[C@H](C(=O)O)N2C(=O)C[C@H]2S1(=O)=O,neuronal differentiation score,[1]; library: Spectrum,inactive: 0
same,dopaminergic neuron differentiation score,[2]; library: Spectrum,inactive: 0
CCCCC[C@H](CC(=O)NO)C(=O)N[C@H](C(=O)N1CCC[C@H]1CO)C(C)C [Actinonin],neuronal differentiation score,[1]; library: LOPAC,inactive: 0
same,dopaminergic neuron differentiation score,[2]; library: LOPAC,inactive: 0
CN(C)CCC(c1ccccc1)c1ccccn1 (stereo unspecified),neuronal differentiation score,[1]; library: Spectrum,inactive: 0
same,dopaminergic neuron differentiation score,[2]; library: Spectrum,inactive: 0
CC(C)C1=CC2=CC[C@@H]3[C@](C)(CCC[C@@]3(C)C(=O)O)[C@H]2CC1 [abietic acid],neuronal differentiation score,[1]; library: Natural,inactive: 0
same,dopaminergic neuron differentiation score,[2]; library: Natural,inactive: 0
CC(O)(P(=O)(O)O)P(=O)(O)O,neuronal differentiation score,[1]; library: Spectrum,inactive: 0
same,dopaminergic neuron differentiation score,[2]; library: Spectrum,inactive: 0
CN1Cc2sccc2C(c2ccc(O)c(O)c2)C1 (stereo unspecified),neuronal differentiation score,[1]; library: LOPAC,inactive: 0
same,dopaminergic neuron differentiation score,[2]; library: LOPAC,inactive: 0
C[N+](C)(C)CCOP(=O)(O)OP(=O)([O-])OC[C@H]1O[C@@H](n2ccc(N)nc2=O)[C@H](O)[C@@H]1O,neuronal differentiation score,[1]; library: Spectrum,inactive: 1
same,dopaminergic neuron differentiation score,[2]; library: Spectrum,inactive: 0
COc1cc(OC)c2c(=O)c(-c3ccccc3)c(C)oc2c1OC,neuronal differentiation score,[1]; library: Spectrum,inactive: 0
same,dopaminergic neuron differentiation score,[2]; library: Spectrum,inactive: 0
COc1cc(CNC(=O)CCCC/C=C/C(C)C)ccc1O [(E)-Capsaicin],neuronal differentiation score,[1]; library: Tocriscreen,inactive: 0
same,dopaminergic neuron differentiation score,[2]; library: Tocriscreen,inactive: 0
CCCOc1ccc2[nH]c(NC(=O)OC)nc2c1 [Oxibendazol],neuronal differentiation score,[1]; library: Prestwick,inactive: 0
same,dopaminergic neuron differentiation score,[2]; library: Prestwick,inactive: 0
COc1cc(Cc2cnc(N)nc2N)cc(OC)c1OC,neuronal differentiation score,[1]; library: Spectrum,inactive: 0
same,dopaminergic neuron differentiation score,[2]; library: Spectrum,inactive: 0
CC(=O)OCC(=O)[C@@]12N=C(C)O[C@@H]1C[C@H]1[C@@H]3CCC4=CC(=O)C=C[C@]4(C)[C@H]3[C@@H](O)C[C@@]12C [Deflazacort],neuronal differentiation score,[1]; library: Prestwick,inactive: 0
same,dopaminergic neuron differentiation score,[2]; library: Prestwick,inactive: 0
C[C@@H]1CC[C@H]2[C@](C)(CO)[C@@H](O)CC[C@]2(C)[C@@]12CC[C@@](CO)(CCO)O2,neuronal differentiation score,[1]; library: Spectrum,inactive: 0
same,dopaminergic neuron differentiation score,[2]; library: Spectrum,inactive: 0
COc1[nH]c2ccc(F)cc2c1C(=O)OCC1CCN(CCNS(C)(=O)=O)CC1.NS(=O)(=O)O,neuronal differentiation score,[1]; library: Tocriscreen,inactive: 0
same,dopaminergic neuron differentiation score,[2]; library: Tocriscreen,inactive: 0
CC[C@@H]1C(=O)OC[C@@H]1Cc1cncn1C [(+)-Pilocarpine hydrochloride],neuronal differentiation score,[1]; library: LOPAC,inactive: 0
same,dopaminergic neuron differentiation score,[2]; library: LOPAC,inactive: 0

# Part of the list above, as tab-separated lines:
smiles	measurement	setting	value
Cc1ccsc1/C=C/C1=NCCCN1C	dopaminergic neuron differentiation score	[2]; library: Spectrum	inactive: 0
CC(=O)Oc1cccc2c1C(=O)c1c(OC(C)=O)cc(C(=O)O)cc1C2=O [Diacerein]	dopaminergic neuron differentiation score	[2]; library: Prestwick	inactive: 0
Cc1cccc(Nc2cc(Cl)nc(SCC(=O)O)n2)c1C	dopaminergic neuron differentiation score	[2]; library: Tocriscreen	inactive: 0
COc1cc(CNC(=O)CCCC/C=C/C(C)C)ccc1O [(E)-Capsaicin]	dopaminergic neuron differentiation score	[2]; library: Tocriscreen	inactive: 0
